Measurements as given in patent WO2019131769A1 (dated 2019).
These are yes or no findings as the source states them, for the method shown. Some entries that bind do so weakly or less than the wild type.

Amino acid sequences for entries named in this document (tags omitted). A change or cut given only in a name is not applied to a line headed by its entry.
UniProt Q9UM07: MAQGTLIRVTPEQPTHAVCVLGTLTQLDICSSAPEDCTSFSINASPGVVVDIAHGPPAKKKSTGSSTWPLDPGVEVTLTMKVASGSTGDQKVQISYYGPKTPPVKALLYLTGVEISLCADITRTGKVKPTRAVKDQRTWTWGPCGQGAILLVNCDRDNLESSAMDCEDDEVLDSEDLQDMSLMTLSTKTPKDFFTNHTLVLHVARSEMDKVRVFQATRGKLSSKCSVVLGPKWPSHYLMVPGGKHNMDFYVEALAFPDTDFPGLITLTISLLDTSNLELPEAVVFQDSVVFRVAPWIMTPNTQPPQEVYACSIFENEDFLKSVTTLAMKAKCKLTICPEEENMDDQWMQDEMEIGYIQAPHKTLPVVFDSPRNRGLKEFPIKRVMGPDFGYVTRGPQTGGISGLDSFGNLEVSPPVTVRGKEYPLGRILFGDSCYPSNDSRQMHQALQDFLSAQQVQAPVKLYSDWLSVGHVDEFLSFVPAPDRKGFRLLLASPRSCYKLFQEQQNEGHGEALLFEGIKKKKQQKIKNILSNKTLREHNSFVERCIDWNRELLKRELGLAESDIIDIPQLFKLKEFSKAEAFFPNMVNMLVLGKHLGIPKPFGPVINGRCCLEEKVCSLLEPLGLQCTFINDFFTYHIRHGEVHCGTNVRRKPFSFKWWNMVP

Assays:
[1] = target: T1, BSA-modified peptide antigen … (SEQ ID NO: 1) (human); experiment: ELISA, culture supernatant of CHO cells on immobilised BSA-modified peptide
T1 sequence (peptide, BSA-modified (carrier conjugate) in the ELISA; KLH-modified for immunisation): FFTYHIRHGEVHC

[2] = target: human PAD4 (Peptidylarginine deiminase 4) (human) (UniProt Q9UM07); experiment: ELISA, culture supernatant of CHO cells on immobilised full-length recombinant human PAD4
[3] = target: human PAD4 (Peptidylarginine deiminase 4) (human) (UniProt Q9UM07); experiment: inferred from inhibition of Ca2+-preactivated human PAD4 (Protocol 2, citrullination of BAEE)

Measured: binding

B1: P1 (antibody, V domains shown)
VH: AVTLDESGGGLQTPGGGLSLICKASGFHMRSYAMNWVRQAPGKGLEFVAGIDNSGRYRNYGAAVKGRATISRDNGQSTVRLQLNNLRAEDTGIYYCAKNFDVGGDGCDWSSGCIDAWGHGTEVIVS
VL: ASTQPSSVSANPGETVKITCSGGSSTYYGWYQQKSPGSAPVTVIYQNTKRPSGLSSRFSGSKSGSTATLTITGVQAEDEAVYFCGGYDTRTYAGIFGAGTTLTVL
notes: Chicken variable regions recombined into mouse chimeric antibody (IgG1) expression vectors; also called anti-PAD4 antibody P1; P1 etc
binds: all assays above

B2: P4 (antibody, V domains shown)
VH: AVTLDESGGGLQTPGGGLSLICKASGFSMRSYAMNWVRQAPGKGLEFVAGIDNTGRYTGYGSAVKGRATISRDNGQSTVRLQLNNLRAEDTGTYYCAKNVDVAGSGCDWSSGCIDAWGHGTEVTVS
VL: ASTQPSSVSANPGETVKITCSGGSSTYYGWYQQKSPGSAPVTVIYQNTKRPSGLSSRFSGSKSGSTATLTITGVQAEDEAVYFCGGYDTRTYAGIFGAGTTLTVL
notes: Chicken variable regions recombined into mouse chimeric antibody (IgG1) expression vectors; also called anti-PAD4 antibody P4; P1 etc
binds: all assays above
